Consider 13 compounds from patent US20180353755A1, “EPIDURAL STIMULATION FOR FACILITATION OF LOCOMOTION, POSTURE, VOLUNTARY MOVEMENT, AND RECOVERY OF AUTONOMIC, SEXUAL, VASOMOTOR, AND COGNITIVE FUNCTION AFTER NEUROLOGICAL INJURY” (NeuroRecovery Technologies, Inc., priority 2014, published 2018).

SMILES strings stand for the structures.

The first series concerns spinal neuromotor networks. Briefly: Pharmacological facilitation of stepping in animals: optimal concentration of illustrative agents (Table 1). The format is in vivo. The settings on record: Route I.P.
On to `Clc1cccc(Cl)c1N=C1NCCN1` [Clonidine], for which the “Optimal Concentration” value amounted to 0.5 mg/kg.
As to `Cl.NC1CCN(c2cccc(Cl)n2)CC1` [SR 57227A], the “Optimal Concentration” value was 1.5 mg/kg.
Still for that read-out and setting: next, `COc1ccc(OC)c(C(O)C(C)N)c1` (stereo not shown) [Methoxamine]: 2.5 mg/kg; `COC(=O)[C@@H]1[C@H]2C[C@H]3c4[nH]c5ccccc5c4CCN3C[C@@H]2CC[C@@H]1O` [Yohimbine]: 0.4 mg/kg.
On the same count and under the same terms, next, `Oc1cc2c(c(Cl)c1O)CCNCC2c1ccccc1` (stereo not shown) [SKF-81297]: 0.2 mg/kg; `COc1ccccc1N1CCN(CCN(C(=O)C2CCCCC2)c2ccccn2)CC1` [Way 100.635]: 0.5 mg/kg.
On the same count and under the same terms, with `CC1CCN(CC[C@H]2CCCN2S(=O)(=O)c2cccc(O)c2)CC1` [SB 269970] the figure was 7 mg/kg; with `Cc1nccn1CC1CCc2c(c3ccccc3n2C)C1=O` (stereo not shown) [Ondanesetron], 3 mg/kg; with `c1ccc2nc(N3CCNCC3)ccc2c1` [Quipazine], 0.2 mg/kg.
`O=C(c1ccc(F)cc1)C1CCN(CCn2c(=O)[nH]c3ccccc3c2=O)CC1` [Ketanserin]: the “Optimal Concentration” value stood at 3 mg/kg.
The same measure, in the same setting: with `COc1cc2nc(N3CCN(C(=O)c4ccco4)CC3)nc(N)c2cc1OC` [Prazosin] the figure was 3 mg/kg; with `CCc1cc(Cl)c(OC)c(C(=O)NC[C@@H]2CCCN2CC)c1O` [Eticlopride], 1.8 mg/kg.

The same series, now with this note: Route S.C.
As to `CCCN(CCC)C1CCc2cccc(O)c2C1` (stereo not shown) [8-OHDPAT], the “Optimal Concentration” value stood at 0.05 mg/kg.
